Measured values from publication PMC12451111.
No constants are given. Whether binding was seen depends on the method and setting. Binding seen in cells or lysates may run through a third protein. Some entries that bind do so weakly or less than the wild type. Tags and fused reporters may be left off the sequences shown.

Molecular target: T1, Flag-tagged LHPP (phospholysine phosphohistidine inorganic pyrophosphate phosphatase) (human) (UniProt Q9H008)
T1 sequence: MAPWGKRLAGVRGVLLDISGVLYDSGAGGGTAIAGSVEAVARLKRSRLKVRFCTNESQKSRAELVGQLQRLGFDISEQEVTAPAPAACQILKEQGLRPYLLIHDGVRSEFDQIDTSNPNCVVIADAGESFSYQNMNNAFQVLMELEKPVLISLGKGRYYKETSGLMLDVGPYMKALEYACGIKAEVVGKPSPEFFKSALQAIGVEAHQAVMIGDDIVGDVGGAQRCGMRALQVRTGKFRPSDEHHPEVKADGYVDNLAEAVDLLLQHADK
Assay: co-IP; IP with Flag-LHPP in Mum2b control and Mum2b LHPP-Flag-overexpressing cells; ACO2 detected

B1: mitochondrial aconitate hydratase 2 (aconitase 2, ACO2) (enzyme, UniProt Q99798 28-780)
chain: QRAKVAMSHFEPNEYIHYDLLEKNINIVRKRLNRPLTLSEKIVYGHLDDPASQEIERGKSYLRLRPDRVAMQDATAQMAMLQFISSGLSKVAVPSTIHCDHLIEAQVGGEKDLRRAKDINQEVYNFLATAGAKYGVGFWKPGSGIIHQIILENYAYPGVLLIGTDSHTPNGGGLGGICIGVGGADAVDVMAGIPWELKCPKVIGVKLTGSLSGWSSPKDVILKVAGILTVKGGTGAIVEYHGPGVDSISCTGMATICNMGAEIGATTSVFPYNHRMKKYLSKTGREDIANLADEFKDHLVPDPGCHYDQLIEINLSELKPHINGPFTPDLAHPVAEVGKVAEKEGWPLDIRVGLIGSCTNSSYEDMGRSAAVAKQALAHGLKCKSQFTITPGSEQIRATIERDGYAQILRDLGGIVLANACGPCIGQWDRKDIKKGEKNTIVTSYNRNFTGRNDANPETHAFVTSPEIVTALAIAGTLKFNPETDYLTGTDGKKFRLEAPDADELPKGEFDPGQDTYQHPPKDSSGQHVDVSPTSQRLQLLEPFDKWDGKDLEDLQILIKVKGKCTTDHISAAGPWLKFRGHLDNISNNLLIGAINIENGKANSVRNAVTQEFGPVPDTARYYKKHGIRWVVIGDENYGEGSSREHAALEPRHLGGRAIITKSFARIHETNLKKQGLLPLTFADPADYNKIHPVDKLTIQGLKDFTPGKPLKCIIKHPNGTQETILLNHTFNETQIEWFRAGSALNRMKELQQ
With B1 the binding was “binds”.
